Experimental data: PubChem BioAssay AID504744 (Drosophila RNAi Screening Center, 2011)

- Aim: 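Find genes whose loss alters insulin-driven dAkt phosphorylation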 (primary screen)
- Cells: Drosophila Kc167 cells
- Reagent: long dsRNA against Drosophila genes, 250 ng dsRNA per well of a 384-well plate
- Timing: 3 days of knock-down, then overnight serum-free starvation before stimulation
- Conditions: bovine insulin at 387 nM for 10 minutes after 12 h without serum
- Measurement: 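In-cell antibody fluorescence for phospho-dAkt in each well over DNA-dye signal, with log2 residuals expressed as z-scores adjusted for cell count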
- Call rule: 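Hit in the insulin screen when the two-replicate mean z-score is more extreme than plus or minus 2.5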
The screen tested about 23,000 reagents; this is an unselected part of those that have a named target and a result. In the full data, 98 (0.43%) got an active call. 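Only hit calls are given; the phospho-dAkt signals, z-scores and hit direction were not deposited.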 Names joined by + are all predicted targets of the reagent.

| gene knocked down | dsRNA | activity call |
| --- | --- | --- |
| l(3)72Dp (lethal (3) 72Dp) | DRSC10477 | inactive |
| Polr2M (RNA polymerase II subunit M) | DRSC15513 | inactive |
| CG9483 | DRSC03226 | inactive |
| CG10343 | DRSC02041 | inactive |
| Sec63 (Secretory 63) | DRSC11002 | inactive |
| CG14329 | DRSC14808 | inactive |
| l(3)07882 (lethal (3) 07882) | DRSC15882 | inactive |
| CG11843 | DRSC14401 | inactive |
| CG13760 | DRSC18617 | inactive |
| CG10909 | DRSC14282 | inactive |
| shtd (shattered) | DRSC20166 | inactive |
| CG30467 | DRSC07097 | inactive |
| Dscam4 (Down syndrome cell adhesion molecule 4) | DRSC08911 | inactive |
| Dscam4 (Down syndrome cell adhesion molecule 4) | DRSC08913 | inactive |
| Dscam4 (Down syndrome cell adhesion molecule 4) | DRSC10031 | inactive |
| Dscam4 (Down syndrome cell adhesion molecule 4) | DRSC10329 | inactive |
| Dscam4 (Down syndrome cell adhesion molecule 4) | DRSC10765 | inactive |
| BobA | DRSC09889 | inactive |
| CG4678 | DRSC19911 | inactive |
| CG4678 | DRSC19912 | inactive |
| b6 | DRSC18740 | inactive |
| CG3407 | DRSC00603 | inactive |
| CG10333 | DRSC02036 | inactive |
| CG4707 | DRSC04483 | inactive |
| CG4563 | DRSC04474 | inactive |
| Cpr49Af (Cuticular protein 49Af) | DRSC07202 | inactive |
| mldr (mulder) | DRSC18100 | inactive |
| CG31782 (retired record) | DRSC01554 | inactive |
| CG31782 (retired record) | DRSC01556 | inactive |
| CG8611 | DRSC19340 | inactive |
| MED24 (Mediator complex subunit 24) | DRSC10944 | inactive |
| CG1806 | DRSC19787 | inactive |
| CG14453 | DRSC11710 | inactive |
| Npc2a (Niemann-Pick type C-2a) | DRSC00698 | inactive |
| Pask (PAS kinase) | DRSC04337 | inactive |
| CG3222 | DRSC10355 | inactive |
| CG8654 | DRSC07231 | inactive |
| CG5877 | DRSC19963 | inactive |
| CG7264 | DRSC10793 | inactive |
| CG30046 | DRSC06691 | inactive |
| TTLL3B (Tubulin tyrosine ligase-like 3B) | DRSC02133 | inactive |
| Slbp (Stem-loop binding protein) | DRSC16863 | inactive |
| CG17211 | DRSC02587 | inactive |
| CG8858 | DRSC07290 | inactive |
| spz4 (spatzle 4) | DRSC02410 | inactive |
| Psf3 (Partner of Sld Five 3) | DRSC18216 | inactive |
| Psf3 (Partner of Sld Five 3) | DRSC21487 | inactive |
| Cad74A (Cadherin 74A) | DRSC10636 | inactive |
| CG33775 | DRSC05353 | inactive |
| CG13280 | DRSC02253 | inactive |
| Pih1D1 (PIH1 domain containing 1) | DRSC02897 | inactive |
| CG13403 | DRSC19535 | inactive |
| Tasp1 (Taspase 1) | DRSC10495 | inactive |
| CG14397 | DRSC02381 | inactive |
| Dgkepsilon (Diacyl glycerol kinase epsilon) | DRSC07399 | inactive |
| CG15023 | DRSC08477 | inactive |
| fwd (four wheel drive) | DRSC08580 | inactive |
| CG7791 | DRSC04891 | inactive |
| CG13005 | DRSC19524 | inactive |
| sac (sterile affecting ciliogenesis) | DRSC12237 | inactive |
| Coq8 (Coenzyme Q8) | DRSC19900 | inactive |
| mus301 (mutagen-sensitive 301) | DRSC10939 | inactive |
| Cdc2rk (Cdc2-related kinase) | DRSC07590 | inactive |
| rdgC (retinal degeneration C) | DRSC11387 | inactive |
| rho-7 (rhomboid-7) | DRSC07304 | inactive |
| galla-2 | DRSC10936 | inactive |
| galla-2 | DRSC21949 | inactive |
| Hsp60C (Heat shock protein 60C) | DRSC03036 | inactive |
| CG11630 | DRSC03696 | inactive |
| Gs1l (GS1-like) | DRSC00754 | inactive |
| ebd1 (earthbound 1) | DRSC08565 | inactive |
| Marf1 (Meiosis regulator and mRNA stability factor 1) | DRSC03747 | inactive |
| Marf1 (Meiosis regulator and mRNA stability factor 1) | DRSC03774 | inactive |
| CG5787 | DRSC02895 | inactive |
| CG10274 | DRSC09716 | inactive |
| CG2129 | DRSC18209 | inactive |
| CG4839 | DRSC02783 | inactive |
| CG4839 | DRSC02784 | inactive |
| CG14563 | DRSC11724 | inactive |
| Prosbeta4 (Proteasome beta4 subunit) | DRSC02603 | inactive |
| JMJD4 (Jumonji domain containing 4) | DRSC03025 | inactive |
| Ice2 (Interacts with the C terminus of ELL 2) | DRSC14268 | inactive |
| dpn (deadpan) | DRSC07605 | inactive |
| CG11382 | DRSC18624 | inactive |
| CG42824 + CG42823 | DRSC13230 | inactive |
| emp (epithelial membrane protein) | DRSC04019 | inactive |
| emp (epithelial membrane protein) | DRSC04683 | inactive |
| Cow | DRSC13601 | inactive |
| Cow | DRSC14680 | inactive |
| CG30195 | DRSC04155 | inactive |
| Mitofilin | DRSC16742 | inactive |
| CG3277 | DRSC00588 | inactive |
| crq (croquemort) | DRSC00810 | inactive |
| CG4793 | DRSC01966 | inactive |
| CG11668 | DRSC14341 | inactive |
| CG14086 | DRSC10090 | inactive |
| CG13587 | DRSC04223 | inactive |
| CG7017 | DRSC10762 | inactive |
| Lcp65APsi (pseudo) | DRSC08795 | inactive |
| Lcp65APsi (pseudo) | DRSC10342 | inactive |
| Nepl18 (Neprilysin-like 18) | DRSC14879 | inactive |
| CG30121 (retired record) | DRSC21481 | inactive |
| rno (rhinoceros) | DRSC08584 | inactive |
| Ucp4C (Uncoupling protein 4C) | DRSC03132 | inactive |
| Klp59D (Kinesin-like protein at 59D) | DRSC04118 | inactive |
| udd (under-developed) | DRSC06720 | inactive |
| niki (nimA-like kinase) | DRSC14285 | inactive |
| Hsp60A (Heat shock protein 60A) | DRSC20254 | inactive |
| CG13250 | DRSC11698 | inactive |
| CG13659 | DRSC14660 | inactive |
| bft (retired record) | DRSC21354 | inactive |
| CG30196 | DRSC04156 | inactive |
| CRMP (Collapsin Response Mediator Protein) | DRSC12073 | inactive |
| CRMP (Collapsin Response Mediator Protein) | DRSC12345 | inactive |
| CG4806 | DRSC04491 | inactive |
| l(3)80Fj (lethal (3) 80Fj) | DRSC20986 | inactive |
| l(3)80Fj (lethal (3) 80Fj) | DRSC20989 | inactive |
| CG14483 | DRSC06455 | inactive |
| CG3355 | DRSC00598 | inactive |
| CG30058 + CG34235 + CG34312 | DRSC05401 | inactive |
| hpRNA:CR32205 (hairpin RNA:CR32205) | DRSC09890 | inactive |
| Gdi (GDP dissociation inhibitor) | DRSC03330 | inactive |
| Klp10A (Kinesin-like protein at 10A) | DRSC19601 | inactive |
| sigmar (salivary glands marred) | DRSC04449 | inactive |
| Gr36a (Gustatory receptor 36a) | DRSC22663 | inactive |
| CD98hc (CD98 heavy chain) | DRSC15453 | inactive |
| Cda5 (Chitin deacetylase-like 5) | DRSC00003 | inactive |
| Cda5 (Chitin deacetylase-like 5) | DRSC00529 | inactive |
| Cda5 (Chitin deacetylase-like 5) | DRSC00532 | inactive |
| Cda5 (Chitin deacetylase-like 5) | DRSC21330 | inactive |
| CG34136 | DRSC01833 | inactive |
| Fdx1 (Ferredoxin 1) | DRSC11167 | inactive |
| Osi8 (Osiris 8) | DRSC12277 | inactive |
| CG9815 | DRSC04567 | inactive |
| robl (roadblock) | DRSC07674 | inactive |
| l(1)G0289 (lethal (1) G0289) | DRSC18215 | inactive |
| CG32241 | DRSC08100 | inactive |
| CG32241 | DRSC21518 | inactive |
| CG5003 | DRSC15694 | inactive |
| RpL6 (Ribosomal protein L6) | DRSC14323 | inactive |
| RpL6 (Ribosomal protein L6) | DRSC22384 | inactive |
| CR33294 (pseudo) | DRSC22950 | inactive |
| CG3829 | DRSC04423 | inactive |
| CG8516 | DRSC16437 | inactive |
| CG11695 | DRSC19416 | inactive |
| Cyp4ac2 (Cytochrome P450 4ac2) | DRSC03303 | inactive |
| CstF50 (Cleavage stimulation factor 50 kD subunit) | DRSC15434 | inactive |
| Sgs8 (Salivary gland secretion 8) | DRSC11282 | inactive |
| ND-SGDH (NADH dehydrogenase (ubiquinone) SGDH subunit) | DRSC11102 | inactive |
| CG13631 | DRSC14632 | inactive |
| Or56a (Odorant receptor 56a) | DRSC07495 | inactive |
| CG1544 | DRSC15036 | inactive |
| Dyrk3 (Dual-specificity tyrosine phosphorylation-regulated kinase 3) | DRSC21055 | inactive |
| LPCAT (Lysophosphatidylcholine acyltransferase) | DRSC18157 | inactive |
| LPCAT (Lysophosphatidylcholine acyltransferase) | DRSC18257 | inactive |
| emei | DRSC10897 | inactive |
| emei | DRSC22684 | inactive |
| RhoGAP16F (Rho GTPase activating protein at 16F) | DRSC20025 | inactive |
| CG5080 | DRSC00677 | inactive |
| exex (extra-extra) | DRSC10972 | inactive |
| Agpat2 (1-Acylglycerol-3-phosphate O-acyltransferase 2) | DRSC03532 | inactive |
| CG13306 | DRSC09976 | inactive |
| Clk (Clock) | DRSC11117 | inactive |
| CG12376 | DRSC06144 | inactive |
| CG7920 | DRSC16346 | inactive |
| CG7920 | DRSC21594 | inactive |
| Xpd (Xeroderma pigmentosum D) | DRSC04666 | inactive |
| CG6709 + Hez | DRSC10165 | inactive |
| CG6709 + Hez | DRSC10698 | inactive |
| cwo (clockwork orange) | DRSC17072 | inactive |
| png (pan gu) | DRSC18582 | inactive |
| CG15362 | DRSC00392 | inactive |
| ERR (estrogen-related receptor) | DRSC10840 | inactive |
| vih (vihar) | DRSC09778 | inactive |
| CG4502 | DRSC02755 | inactive |
| CG1622 | DRSC19745 | inactive |
| Pus10 (Pseudouridine synthase 10) | DRSC00629 | inactive |
| CG7829 | DRSC16322 | inactive |
| CG2641 | DRSC15441 | inactive |
| CG13258 | DRSC02244 | inactive |
| Egm (Enigma) | DRSC07319 | inactive |
| Egm (Enigma) | DRSC22860 | inactive |
| atilla | DRSC02971 | inactive |
| RpS12 (Ribosomal protein S12) | DRSC11270 | inactive |
| CG34302 | DRSC12751 | inactive |
| CG13955 | DRSC06443 | inactive |
| CG8004 | DRSC10947 | inactive |
| CG13771 | DRSC02277 | inactive |
| Cyp6a17 (Cytochrome P450 6a17) | DRSC07378 | inactive |
| Dsor1 (Downstream of raf1) | DRSC18462 | inactive |
| JYalpha (retired record) + JYalpha | DRSC21700 | inactive |
| CG14691 | DRSC14914 | inactive |
| CG14960 | DRSC08419 | inactive |
| Fer2 (48 related 2) | DRSC15925 | inactive |
| CG31800 | DRSC22525 | inactive |
| GckIII (Germinal centre kinase III) | DRSC15729 | inactive |
| p-cup (presidents-cup) | DRSC19513 | inactive |
| CG9992 | DRSC20226 | inactive |
| CG9992 | DRSC21643 | inactive |
| CG31882 | DRSC01084 | inactive |
